Assay results: publication PMC12173456
No constants are given. Whether binding was seen depends on the method and setting. In cells and extracts the contact can be indirect. Some results given as binding are weak or reduced against the parent protein; the word gives no strength.

Chains of the proteins cited; added tags and fusions are not shown. Residues count along the entry.
UniProt Q91ZX7, residues 20-4545: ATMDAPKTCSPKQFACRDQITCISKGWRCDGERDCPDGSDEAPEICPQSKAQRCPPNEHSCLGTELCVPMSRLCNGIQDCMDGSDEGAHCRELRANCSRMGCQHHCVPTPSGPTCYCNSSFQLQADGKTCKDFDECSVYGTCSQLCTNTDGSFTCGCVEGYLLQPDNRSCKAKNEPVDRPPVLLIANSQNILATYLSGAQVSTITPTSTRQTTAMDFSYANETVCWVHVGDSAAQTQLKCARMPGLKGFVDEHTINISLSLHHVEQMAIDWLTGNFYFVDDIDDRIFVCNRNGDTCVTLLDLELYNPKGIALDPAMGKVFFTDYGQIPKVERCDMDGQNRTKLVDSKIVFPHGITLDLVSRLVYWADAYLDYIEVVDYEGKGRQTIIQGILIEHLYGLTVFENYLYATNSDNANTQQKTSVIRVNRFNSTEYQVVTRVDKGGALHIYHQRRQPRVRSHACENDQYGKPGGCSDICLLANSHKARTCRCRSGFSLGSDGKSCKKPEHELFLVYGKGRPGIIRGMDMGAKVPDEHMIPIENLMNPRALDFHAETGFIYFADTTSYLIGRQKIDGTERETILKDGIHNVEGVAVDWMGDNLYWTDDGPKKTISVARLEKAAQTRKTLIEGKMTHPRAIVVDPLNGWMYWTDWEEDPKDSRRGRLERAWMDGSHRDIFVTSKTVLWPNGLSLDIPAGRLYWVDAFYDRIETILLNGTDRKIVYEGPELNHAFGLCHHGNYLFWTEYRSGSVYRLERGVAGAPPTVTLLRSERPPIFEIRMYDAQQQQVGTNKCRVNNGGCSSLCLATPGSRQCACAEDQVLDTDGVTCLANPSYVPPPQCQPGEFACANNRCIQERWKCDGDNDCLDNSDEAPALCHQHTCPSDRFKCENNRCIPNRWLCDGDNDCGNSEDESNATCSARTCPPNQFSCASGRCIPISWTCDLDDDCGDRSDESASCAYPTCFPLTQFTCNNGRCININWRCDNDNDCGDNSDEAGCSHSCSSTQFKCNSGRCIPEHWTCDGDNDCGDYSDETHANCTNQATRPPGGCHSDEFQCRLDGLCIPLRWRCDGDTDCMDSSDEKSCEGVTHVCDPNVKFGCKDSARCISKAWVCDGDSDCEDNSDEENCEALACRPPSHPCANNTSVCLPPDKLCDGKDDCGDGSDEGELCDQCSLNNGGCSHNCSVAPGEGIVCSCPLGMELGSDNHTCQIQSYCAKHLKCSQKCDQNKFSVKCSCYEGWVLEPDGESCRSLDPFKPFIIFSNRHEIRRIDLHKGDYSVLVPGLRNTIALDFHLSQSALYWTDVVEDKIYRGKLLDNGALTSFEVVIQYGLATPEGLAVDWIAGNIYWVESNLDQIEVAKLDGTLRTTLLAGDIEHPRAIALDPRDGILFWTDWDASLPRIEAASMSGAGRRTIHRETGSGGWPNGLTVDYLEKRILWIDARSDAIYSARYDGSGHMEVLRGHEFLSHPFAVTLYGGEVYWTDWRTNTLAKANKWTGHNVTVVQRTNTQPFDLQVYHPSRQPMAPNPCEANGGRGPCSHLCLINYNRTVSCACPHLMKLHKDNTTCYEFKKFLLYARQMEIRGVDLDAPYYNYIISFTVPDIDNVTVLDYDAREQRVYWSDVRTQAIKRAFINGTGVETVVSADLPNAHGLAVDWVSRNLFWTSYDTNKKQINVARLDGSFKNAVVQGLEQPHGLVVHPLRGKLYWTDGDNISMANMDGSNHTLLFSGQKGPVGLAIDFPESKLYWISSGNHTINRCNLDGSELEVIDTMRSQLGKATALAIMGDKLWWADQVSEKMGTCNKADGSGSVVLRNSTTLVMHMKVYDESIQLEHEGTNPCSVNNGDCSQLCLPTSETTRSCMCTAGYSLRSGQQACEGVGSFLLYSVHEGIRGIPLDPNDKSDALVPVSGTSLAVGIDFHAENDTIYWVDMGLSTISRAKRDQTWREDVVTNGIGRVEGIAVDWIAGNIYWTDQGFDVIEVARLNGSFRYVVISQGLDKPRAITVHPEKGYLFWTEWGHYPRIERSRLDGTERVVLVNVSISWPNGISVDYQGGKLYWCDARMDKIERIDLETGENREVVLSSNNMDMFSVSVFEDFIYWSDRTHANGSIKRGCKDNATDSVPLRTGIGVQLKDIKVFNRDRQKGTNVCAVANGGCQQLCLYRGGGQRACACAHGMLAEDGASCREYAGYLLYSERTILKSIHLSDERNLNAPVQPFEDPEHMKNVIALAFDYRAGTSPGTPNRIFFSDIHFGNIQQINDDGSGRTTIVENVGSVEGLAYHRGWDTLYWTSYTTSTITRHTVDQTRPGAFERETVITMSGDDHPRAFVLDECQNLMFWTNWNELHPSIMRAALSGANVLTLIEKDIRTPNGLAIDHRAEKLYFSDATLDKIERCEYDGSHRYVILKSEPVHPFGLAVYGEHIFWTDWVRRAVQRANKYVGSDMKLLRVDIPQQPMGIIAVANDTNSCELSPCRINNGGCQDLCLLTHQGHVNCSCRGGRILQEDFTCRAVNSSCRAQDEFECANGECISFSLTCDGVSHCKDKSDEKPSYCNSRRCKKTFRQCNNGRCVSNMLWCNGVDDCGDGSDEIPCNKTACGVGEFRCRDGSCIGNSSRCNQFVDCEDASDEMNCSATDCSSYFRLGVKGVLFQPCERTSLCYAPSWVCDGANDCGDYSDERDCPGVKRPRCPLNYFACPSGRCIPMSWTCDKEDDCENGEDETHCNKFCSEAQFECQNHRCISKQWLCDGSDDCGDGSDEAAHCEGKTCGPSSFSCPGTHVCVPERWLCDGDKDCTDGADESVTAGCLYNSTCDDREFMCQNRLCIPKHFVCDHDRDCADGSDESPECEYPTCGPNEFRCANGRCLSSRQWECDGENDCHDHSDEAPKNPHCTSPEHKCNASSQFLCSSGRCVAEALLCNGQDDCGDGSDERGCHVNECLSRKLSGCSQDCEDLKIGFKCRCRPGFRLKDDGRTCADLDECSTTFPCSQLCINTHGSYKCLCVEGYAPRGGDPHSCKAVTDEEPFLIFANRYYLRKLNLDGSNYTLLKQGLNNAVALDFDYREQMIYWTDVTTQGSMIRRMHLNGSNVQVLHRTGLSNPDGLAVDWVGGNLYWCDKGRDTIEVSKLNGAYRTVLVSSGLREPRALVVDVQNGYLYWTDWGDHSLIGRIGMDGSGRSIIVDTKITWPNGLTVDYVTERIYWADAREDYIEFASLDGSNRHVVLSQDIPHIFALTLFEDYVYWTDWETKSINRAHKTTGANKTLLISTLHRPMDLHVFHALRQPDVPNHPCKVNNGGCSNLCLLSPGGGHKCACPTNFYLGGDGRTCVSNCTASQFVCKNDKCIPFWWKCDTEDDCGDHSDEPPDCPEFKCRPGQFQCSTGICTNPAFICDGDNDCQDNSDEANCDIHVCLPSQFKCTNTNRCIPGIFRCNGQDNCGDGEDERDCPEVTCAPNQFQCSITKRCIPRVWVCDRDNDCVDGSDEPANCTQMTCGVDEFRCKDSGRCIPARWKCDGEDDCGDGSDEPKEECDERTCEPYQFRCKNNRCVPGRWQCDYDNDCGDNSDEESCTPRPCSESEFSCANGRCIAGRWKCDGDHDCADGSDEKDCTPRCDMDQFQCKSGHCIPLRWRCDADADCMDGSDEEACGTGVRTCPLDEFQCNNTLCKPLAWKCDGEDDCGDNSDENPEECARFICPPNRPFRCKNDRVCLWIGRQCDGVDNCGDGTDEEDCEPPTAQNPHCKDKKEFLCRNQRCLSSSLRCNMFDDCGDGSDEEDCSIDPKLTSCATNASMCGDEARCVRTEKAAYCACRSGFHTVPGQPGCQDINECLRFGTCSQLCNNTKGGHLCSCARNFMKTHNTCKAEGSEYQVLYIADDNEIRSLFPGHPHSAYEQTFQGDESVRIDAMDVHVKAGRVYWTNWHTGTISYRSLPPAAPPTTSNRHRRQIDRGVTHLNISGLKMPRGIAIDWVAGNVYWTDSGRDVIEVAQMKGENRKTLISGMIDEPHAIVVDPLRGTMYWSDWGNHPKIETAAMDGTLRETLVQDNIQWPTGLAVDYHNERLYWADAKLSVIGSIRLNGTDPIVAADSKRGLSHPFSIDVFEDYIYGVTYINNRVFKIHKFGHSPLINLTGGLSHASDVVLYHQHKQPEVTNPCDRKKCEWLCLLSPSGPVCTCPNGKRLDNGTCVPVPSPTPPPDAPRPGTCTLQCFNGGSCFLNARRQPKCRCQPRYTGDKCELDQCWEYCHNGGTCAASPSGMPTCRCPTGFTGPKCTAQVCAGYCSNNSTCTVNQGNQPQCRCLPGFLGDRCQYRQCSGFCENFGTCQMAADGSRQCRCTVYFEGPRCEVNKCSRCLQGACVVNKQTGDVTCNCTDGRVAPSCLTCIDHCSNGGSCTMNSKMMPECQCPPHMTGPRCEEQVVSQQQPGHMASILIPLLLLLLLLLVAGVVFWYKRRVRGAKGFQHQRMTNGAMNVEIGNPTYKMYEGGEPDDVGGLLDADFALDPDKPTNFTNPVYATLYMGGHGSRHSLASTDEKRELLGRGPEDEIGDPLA
UniProt P35951, residues 22-862: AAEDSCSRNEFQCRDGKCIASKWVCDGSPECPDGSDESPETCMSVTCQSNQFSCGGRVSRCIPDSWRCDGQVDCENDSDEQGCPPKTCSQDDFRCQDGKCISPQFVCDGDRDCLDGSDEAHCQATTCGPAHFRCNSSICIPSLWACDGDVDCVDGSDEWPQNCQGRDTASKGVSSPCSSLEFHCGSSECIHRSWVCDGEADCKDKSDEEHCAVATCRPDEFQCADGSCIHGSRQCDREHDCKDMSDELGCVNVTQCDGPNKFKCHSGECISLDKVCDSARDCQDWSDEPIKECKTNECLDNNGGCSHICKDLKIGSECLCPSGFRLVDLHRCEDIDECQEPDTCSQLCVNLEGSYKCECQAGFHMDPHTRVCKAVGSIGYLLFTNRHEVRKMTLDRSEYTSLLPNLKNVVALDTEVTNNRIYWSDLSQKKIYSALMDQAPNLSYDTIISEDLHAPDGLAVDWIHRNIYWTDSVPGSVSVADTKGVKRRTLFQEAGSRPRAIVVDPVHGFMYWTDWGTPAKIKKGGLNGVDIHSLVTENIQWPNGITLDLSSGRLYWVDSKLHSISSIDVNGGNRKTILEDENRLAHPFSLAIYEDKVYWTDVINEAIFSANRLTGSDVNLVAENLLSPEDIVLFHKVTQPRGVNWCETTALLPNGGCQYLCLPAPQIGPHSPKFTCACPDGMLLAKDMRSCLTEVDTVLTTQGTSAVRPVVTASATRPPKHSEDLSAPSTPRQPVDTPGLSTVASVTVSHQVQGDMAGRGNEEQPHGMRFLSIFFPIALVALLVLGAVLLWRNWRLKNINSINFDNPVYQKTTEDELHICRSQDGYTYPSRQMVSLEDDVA

Target: T1, K+–Cl− cotransporter 2 (KCC2) (mouse (endogenous in hippocampal tissue)) (UniProt Q91V14)
T1 sequence: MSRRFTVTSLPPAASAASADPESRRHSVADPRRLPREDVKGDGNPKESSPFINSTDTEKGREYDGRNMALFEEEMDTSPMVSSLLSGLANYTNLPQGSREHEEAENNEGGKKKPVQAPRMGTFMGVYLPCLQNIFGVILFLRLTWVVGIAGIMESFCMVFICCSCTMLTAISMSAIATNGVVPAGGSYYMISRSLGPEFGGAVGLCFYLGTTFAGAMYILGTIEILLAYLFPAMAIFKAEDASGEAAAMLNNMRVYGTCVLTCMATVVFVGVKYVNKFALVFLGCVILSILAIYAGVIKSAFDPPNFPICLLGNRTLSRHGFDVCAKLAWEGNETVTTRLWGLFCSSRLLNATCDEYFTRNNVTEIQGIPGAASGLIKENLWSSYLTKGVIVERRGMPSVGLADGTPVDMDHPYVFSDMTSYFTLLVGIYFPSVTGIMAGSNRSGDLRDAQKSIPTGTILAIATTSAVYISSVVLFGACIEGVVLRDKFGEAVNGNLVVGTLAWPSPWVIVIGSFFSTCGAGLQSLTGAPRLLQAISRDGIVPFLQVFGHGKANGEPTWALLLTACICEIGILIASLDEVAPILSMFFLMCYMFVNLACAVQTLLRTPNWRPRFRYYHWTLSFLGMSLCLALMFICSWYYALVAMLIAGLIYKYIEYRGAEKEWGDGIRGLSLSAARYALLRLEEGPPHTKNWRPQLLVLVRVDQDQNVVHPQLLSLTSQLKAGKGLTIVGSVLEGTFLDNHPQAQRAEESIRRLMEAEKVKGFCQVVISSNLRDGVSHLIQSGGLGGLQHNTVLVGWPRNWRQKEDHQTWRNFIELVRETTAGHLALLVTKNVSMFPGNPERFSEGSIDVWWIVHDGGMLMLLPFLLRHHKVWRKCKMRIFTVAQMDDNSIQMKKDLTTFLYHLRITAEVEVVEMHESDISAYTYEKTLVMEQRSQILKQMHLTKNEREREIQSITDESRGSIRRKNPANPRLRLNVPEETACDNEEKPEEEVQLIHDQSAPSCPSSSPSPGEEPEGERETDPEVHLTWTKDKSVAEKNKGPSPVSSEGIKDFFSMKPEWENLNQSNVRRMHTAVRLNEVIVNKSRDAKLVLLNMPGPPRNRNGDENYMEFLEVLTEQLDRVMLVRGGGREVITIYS
Assay: co-IP; mouse hippocampal tissue homogenate (500 ug total protein) incubated with 2 ug anti-KCC2 antibody in immunoprecipitation buffer at 4 °C for 12 h, Protein A agarose overnight at 4 °C, acidic elution, immunoblotting

Row | binding | Substance
1 | binds | LDLR-related protein 1 (LRP1) (from UniProt Q91ZX7 20-4545) (receptor)
2 | binds | low-density lipoprotein receptor (LDLR) (from UniProt P35951 22-862)
